Source: PubChem BioAssay AID504804 (Drosophila RNAi Screening Center, 2011)
The screen tested about 19,000 reagents; below is a random part of those that have a named target and a result. In the full data, 47 (0.25%) are marked active. 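Signals are raw, not normalised; exact z-scores behind calls not deposited; actives needed confirmation, so some wells reaching 2 SD are inactive.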 Entries without a mark were called inactive. The numbers tell different reagents against one gene apart. A plus sign joins genes that one reagent is predicted to hit. Reagent sequences are not shown.

Test: 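dsRNAs that improve Kc cell survival under doxorubicin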 (primary screen)
Cell system: Drosophila Kc cells
Reagents: long dsRNA against Drosophila genes, 0.5 µg dsRNA per well
Duration: 96 h (48 h knock-down, then 48 h drug)
Challenge: doxorubicin 5 µg/ml for 48 h, added 48 h after dsRNA
Measurement: 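Luminescent ATP counts per replicate, not normalised, reflecting viable cells after 48 h dsRNA knock-down followed by 48 h of 5 µg/ml doxorubicin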
Direction: raw ATP luminescence: higher = more viable cells, protection from doxorubicin
Active means: 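z-score of 2 or more over plate mean in both duplicates, retained only when retests and separate dsRNAs confirm the protection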

target	reagent	raw ATP luminescence, replicate 1	raw ATP luminescence, replicate 2
CrzR	1	52900	48083
CrzR	2	57983	60577
CG10859	1	89210	69047
CG32249	1	1.57e5	29670
CG32249	2	73307	77163
Golgin84	1	58830	45070
sstn	1	54020	49520
CLS	1	57200	66810
Cyp6t1	1	3.54e5	3.23e5
DCTN5-p25	1	67800	64920
CG6443	1	53363	37820
CG15458	1	2.96e5	2.97e5
CG14891	1	36683	40347
CG3021	1	41300	41220
CG3021	2	36540	54350
CG1409	1	37150	38540
CG6739	1	22747	23380
CG15012	1	42497	38110
ImpL1	1	38710	41217
exu	1	60407	55363
Skp2 + CG1103	1	20623	20860
CG13252	1	68740	78603
CG14234	1	2.78e5	2.49e5
CG14234	2	2.53e5	2.83e5
nopo	1	57027	62953
Sf3a1	1	32110	39323
Jon65Aiv	1	80720	70813
CG12917	1	41413	68613
Ehbp1	1	51710	64917
ND-B14.5A	1	72560	67770
SdhA	1	59750	70150
PCID2	1	39183	40757
tous	1	60400	62903
Alms1a	1	36040	38310

An excerpt from above, reduced to “raw ATP luminescence, replicate 1”:
CG13252	68740
CG14234 #1	2.78e5
CG14234 #2	2.53e5
nopo	57027
